Data reported in patent publication US8440611 (dated 2013).

Assay: general procedure: Fmoc solid-phase peptide synthesis; Rink Amide MBHA resin (Novabiochem), 0.73 mmol/g
Settings: whole synthesis, analytical HPLC, C18 column, 2-60% acetonitrile (0.1% TFA) over 30 minutes, scale of the general procedure 1.0 mmole (residues 18-36), 0.1 mmole (residues 1-17)

[Aib^11,17, 4Hyp^34, Lys^35-ψ(CH2—N(Ac))Tyr^36]hNPY(1-36)-NH2
final HPLC purity: 99.9%

[Aib^11,17, 4Hyp^34, Lys^35-ψ(CH2—NH)Tyr^36]hNPY(1-36)-NH2
final HPLC purity: 99.9%

[Aib^17, 4Hyp^34, Apc^35]hNPY(1-36)-NH2
final HPLC purity: 99.9%

[Aib^17, 4Hyp^34, Lys^35-ψ(CH2—NH)Tyr^36]hNPY(1-36)-NH2
final HPLC purity: 99.9%
